Assay results reported in patent US11490644B2, “Co-Q10, krill oil and vitamin D” (RB HEALTH (US) LLC, priority 2015, dated 2022).
At least one compound was matched to its structure with a doubt left.

Assay: Antioxidant study: influence of antioxidant on Co-Q10 stability in krill oil and Vitamin D
Type: physicochemical
Conditions: in krill oil and Vitamin D with the antioxidant
Experimental: Several antioxidants were evaluated for their ability to stabilize Co-Q10 in krill oil and Vitamin D. The results are summarized in Table 2.

NC(N)=S [Thiourea]
Amount of Co-Q10 (1 week): 145 mg
Amount of Co-Q10 (2 weeks): 109 mg
Amount of Co-Q10 (Initial): 155 mg
